Measurements from US11712480 (dated 2023).

Assay: general procedure: solution-phase peptide synthesis; HATU/DIPEA; DMT-MM or 2-chloro-4,6-dimethoxy-1,3,5-triazine with N-methyl morpho
Conditions: late stage modification step

| Substance | step yield (trifluoroacetic acid salt) | step yield (trifluoroacetic acid salt (some compounds)) |
| --- | --- | --- |
| 1-(21-amino-4,7,10,13,16,19-hexaoxahenicosan-1-oyl)-2-methyl-L-prolyl-N-[(3R,4S,5S)-1-{(2S)-2-[(1R,2R)-3-{[(1S)-1-carboxy-2-phenylethyl]amino}-1-methoxy-2-methyl-3-oxopropyl]pyrrolidin-1-yl}-3-methoxy-5-methyl-1-oxoheptan-4-yl] | 71% |  |
| N^2-acetyl-N^6-{[2-(methylsulfonyl)pyrimidin-5-yl]carbonyl}-L-lysyl-L-valyl-N-{4-[(8S,11S,12R)-11-[(2S)-butan-2-yl]-12-(2-{(2S)-2-[(1R,2R)-1-methoxy-2-methyl-3-oxo-3-{[(1S)-2-phenyl-1-(1,3-thiazol-2-yl)ethyl]amino}propyl]pyrrolidin-1-yl}-2-oxoethyl)-5,5,10-trimethyl-3,6,9-trioxo-8-(propan-2-yl)-2,13-dioxa-4,7,10-triazatetradec-1-yl]phenyl}-N^5-carbamoyl-L-ornithinamide |  | 89% |
